No constants are given. Whether binding was seen depends on the method and setting. Some results given as binding are weak or reduced against the parent protein; the word gives no strength.
Molecular target: GST-DBD NR4A2 (aa 245-360) (UniProt Q06219)
Experiment: pull-down; GST-DBD NR4A2 on GST beads as bait; equimolar pure FLAG-DNA-PKcs or FLAG-Ku70/Ku80 as prey; 1 hr on ice in 50 mM Tris pH 7.5, 150 mM NaCl, 0.5% Triton X-100, 1 mM DTT; washes with 300 mM NaCl; elution by PreScission cleavage; western blot; both purified

Protein sequences, listed by entry. Tags and fused reporters are not part of them.
UniProt P78527: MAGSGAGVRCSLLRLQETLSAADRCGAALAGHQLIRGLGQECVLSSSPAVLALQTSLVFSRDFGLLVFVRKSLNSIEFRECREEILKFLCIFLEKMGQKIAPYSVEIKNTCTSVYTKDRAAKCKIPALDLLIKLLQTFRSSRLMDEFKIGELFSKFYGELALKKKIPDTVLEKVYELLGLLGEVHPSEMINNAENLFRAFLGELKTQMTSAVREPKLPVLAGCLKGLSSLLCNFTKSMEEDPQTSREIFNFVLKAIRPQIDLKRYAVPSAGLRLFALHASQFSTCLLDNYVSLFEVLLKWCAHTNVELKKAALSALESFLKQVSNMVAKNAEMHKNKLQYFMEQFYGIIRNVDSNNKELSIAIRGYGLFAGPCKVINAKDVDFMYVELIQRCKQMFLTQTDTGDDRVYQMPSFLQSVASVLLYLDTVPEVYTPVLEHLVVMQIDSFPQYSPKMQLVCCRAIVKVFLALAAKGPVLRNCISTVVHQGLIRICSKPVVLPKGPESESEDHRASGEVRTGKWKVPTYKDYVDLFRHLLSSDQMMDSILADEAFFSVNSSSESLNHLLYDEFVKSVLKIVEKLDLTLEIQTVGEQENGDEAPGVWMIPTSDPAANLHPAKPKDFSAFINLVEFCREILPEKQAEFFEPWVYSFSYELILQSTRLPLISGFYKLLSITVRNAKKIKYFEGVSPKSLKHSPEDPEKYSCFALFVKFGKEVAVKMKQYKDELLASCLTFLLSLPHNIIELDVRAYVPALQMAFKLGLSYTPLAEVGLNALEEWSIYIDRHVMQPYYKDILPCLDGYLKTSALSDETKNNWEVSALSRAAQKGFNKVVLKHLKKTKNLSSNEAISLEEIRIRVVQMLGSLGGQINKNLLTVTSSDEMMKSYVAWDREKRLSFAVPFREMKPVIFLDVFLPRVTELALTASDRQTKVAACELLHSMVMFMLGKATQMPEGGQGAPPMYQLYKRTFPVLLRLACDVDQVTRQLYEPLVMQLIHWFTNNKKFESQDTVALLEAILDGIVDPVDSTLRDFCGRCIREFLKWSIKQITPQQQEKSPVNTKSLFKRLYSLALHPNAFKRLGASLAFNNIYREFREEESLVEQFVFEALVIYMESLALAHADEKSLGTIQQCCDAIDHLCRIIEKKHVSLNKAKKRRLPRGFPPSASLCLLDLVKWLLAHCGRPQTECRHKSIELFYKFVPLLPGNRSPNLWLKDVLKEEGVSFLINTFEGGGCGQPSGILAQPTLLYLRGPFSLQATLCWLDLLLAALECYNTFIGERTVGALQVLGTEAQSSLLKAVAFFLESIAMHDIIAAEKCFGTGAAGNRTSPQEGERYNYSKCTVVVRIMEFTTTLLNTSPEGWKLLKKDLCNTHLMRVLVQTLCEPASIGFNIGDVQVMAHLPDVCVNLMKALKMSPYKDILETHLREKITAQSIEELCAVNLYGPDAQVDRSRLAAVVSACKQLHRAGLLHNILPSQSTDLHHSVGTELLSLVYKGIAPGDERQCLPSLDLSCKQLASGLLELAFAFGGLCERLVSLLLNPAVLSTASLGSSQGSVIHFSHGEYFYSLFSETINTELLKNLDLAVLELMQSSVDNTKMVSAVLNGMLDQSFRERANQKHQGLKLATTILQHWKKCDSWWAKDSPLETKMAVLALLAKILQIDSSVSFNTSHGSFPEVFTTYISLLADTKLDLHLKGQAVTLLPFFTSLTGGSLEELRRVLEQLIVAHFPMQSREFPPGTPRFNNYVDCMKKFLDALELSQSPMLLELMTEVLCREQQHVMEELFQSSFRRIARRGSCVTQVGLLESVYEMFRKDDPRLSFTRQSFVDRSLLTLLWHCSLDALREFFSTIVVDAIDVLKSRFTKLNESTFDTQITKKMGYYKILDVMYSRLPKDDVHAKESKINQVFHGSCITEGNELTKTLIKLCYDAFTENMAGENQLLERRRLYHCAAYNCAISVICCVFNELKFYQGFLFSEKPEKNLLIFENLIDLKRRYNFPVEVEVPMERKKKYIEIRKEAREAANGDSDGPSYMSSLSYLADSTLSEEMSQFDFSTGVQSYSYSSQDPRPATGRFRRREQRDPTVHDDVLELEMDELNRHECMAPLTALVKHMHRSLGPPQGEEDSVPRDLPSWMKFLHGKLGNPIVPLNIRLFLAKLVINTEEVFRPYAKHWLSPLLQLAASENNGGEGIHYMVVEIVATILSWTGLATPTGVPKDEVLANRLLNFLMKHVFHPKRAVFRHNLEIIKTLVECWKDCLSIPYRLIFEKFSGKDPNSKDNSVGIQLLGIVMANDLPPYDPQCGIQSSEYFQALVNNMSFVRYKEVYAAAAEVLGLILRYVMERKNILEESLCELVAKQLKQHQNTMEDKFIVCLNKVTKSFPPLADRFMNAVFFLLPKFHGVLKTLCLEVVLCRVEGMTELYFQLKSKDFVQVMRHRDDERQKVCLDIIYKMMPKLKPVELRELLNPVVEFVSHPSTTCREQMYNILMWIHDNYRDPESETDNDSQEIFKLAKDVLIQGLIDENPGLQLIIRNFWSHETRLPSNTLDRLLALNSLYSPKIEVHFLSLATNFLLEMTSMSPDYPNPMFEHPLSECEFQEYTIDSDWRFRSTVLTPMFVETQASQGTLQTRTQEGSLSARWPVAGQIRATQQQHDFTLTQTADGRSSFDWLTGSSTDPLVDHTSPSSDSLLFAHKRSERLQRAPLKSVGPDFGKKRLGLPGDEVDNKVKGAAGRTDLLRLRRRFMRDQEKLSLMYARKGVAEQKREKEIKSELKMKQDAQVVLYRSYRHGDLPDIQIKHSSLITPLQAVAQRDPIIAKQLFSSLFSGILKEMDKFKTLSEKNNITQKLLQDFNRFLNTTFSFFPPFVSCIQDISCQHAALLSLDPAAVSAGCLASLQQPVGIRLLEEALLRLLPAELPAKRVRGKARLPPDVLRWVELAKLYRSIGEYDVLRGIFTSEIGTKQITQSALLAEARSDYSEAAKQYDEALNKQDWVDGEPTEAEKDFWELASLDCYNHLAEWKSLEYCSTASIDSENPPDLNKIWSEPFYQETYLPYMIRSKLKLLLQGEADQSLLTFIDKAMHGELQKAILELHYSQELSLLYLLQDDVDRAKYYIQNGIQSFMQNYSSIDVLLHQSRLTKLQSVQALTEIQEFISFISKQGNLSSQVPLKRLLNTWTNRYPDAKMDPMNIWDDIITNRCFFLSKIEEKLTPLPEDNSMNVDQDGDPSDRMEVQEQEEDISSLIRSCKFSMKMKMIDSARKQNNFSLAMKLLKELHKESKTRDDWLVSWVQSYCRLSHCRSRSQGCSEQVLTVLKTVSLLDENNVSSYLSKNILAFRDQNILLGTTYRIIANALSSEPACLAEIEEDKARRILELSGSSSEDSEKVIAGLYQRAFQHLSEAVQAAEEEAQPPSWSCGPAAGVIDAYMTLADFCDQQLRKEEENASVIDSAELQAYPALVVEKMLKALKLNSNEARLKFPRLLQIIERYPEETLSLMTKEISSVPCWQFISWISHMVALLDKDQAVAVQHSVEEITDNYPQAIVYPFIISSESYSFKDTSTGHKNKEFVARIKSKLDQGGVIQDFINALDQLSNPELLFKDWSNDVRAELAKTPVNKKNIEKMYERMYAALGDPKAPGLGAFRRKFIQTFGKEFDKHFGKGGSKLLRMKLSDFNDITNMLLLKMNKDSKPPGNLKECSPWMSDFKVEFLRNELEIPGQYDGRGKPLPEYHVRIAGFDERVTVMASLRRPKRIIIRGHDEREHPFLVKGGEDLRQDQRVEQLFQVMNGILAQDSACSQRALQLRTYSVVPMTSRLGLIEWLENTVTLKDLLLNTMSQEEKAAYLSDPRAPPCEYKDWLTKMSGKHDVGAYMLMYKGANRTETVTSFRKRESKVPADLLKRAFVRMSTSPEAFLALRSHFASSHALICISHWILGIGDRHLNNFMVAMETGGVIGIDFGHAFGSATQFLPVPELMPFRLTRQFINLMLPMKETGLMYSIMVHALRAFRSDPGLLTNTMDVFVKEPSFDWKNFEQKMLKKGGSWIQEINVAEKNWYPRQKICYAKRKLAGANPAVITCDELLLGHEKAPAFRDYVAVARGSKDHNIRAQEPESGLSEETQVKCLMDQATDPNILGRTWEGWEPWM

| Substance | binding |
| --- | --- |
| FLAG-DNA-PKcs purified from IR-treated cells (poly-ADP-ribosylated) (from UniProt P78527 1-4128) (enzyme) | binds |
| FLAG-Ku70/Ku80 complex purified from cells treated with IR and PARP inhibitor (no PARylation) (from UniProt P12956 1-609; P13010 1-732) | binds |
